We go through 1 substance from doi:10.1101/858092.

Test in all cases: split reporter
Assay [1] has as its target T1, ATG8e G118A (Arabidopsis), nYFP fusion (Arabidopsis) (UniProt Q8S926).
T1 sequence: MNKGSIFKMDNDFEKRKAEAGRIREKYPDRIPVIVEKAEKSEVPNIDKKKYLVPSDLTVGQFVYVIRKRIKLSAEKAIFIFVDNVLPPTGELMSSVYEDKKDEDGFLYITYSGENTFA

Assay [2] deals with T2, ATG8e L52A (Arabidopsis), nYFP fusion (Arabidopsis) (UniProt Q8S926).
T2 sequence: T1 sequence with L52A, A118G

The target of assay [3] is Arabidopsis autophagy-related gene product 8e (ATG8e), nYFP fusion (Arabidopsis) (UniProt Q8S926).

Substitutions are numbered along the chain they refer to. These are yes or no findings as the source states them, for the method shown. In cells and extracts the contact can be indirect. For part of these data: A result given as binding can be weak or reduced; the word gives no strength. For part of these data: Tags and fused reporters may be left off the sequences shown.

Regarding “Nicotiana tabacum Regulator of Gene Silencing Calmodulin (rgsCaM), C-terminal cYFP fusion (from UniProt Q9AXG2)”, the binding entry in assay [1] is given as “no binding”; in assay [2], “no binding”; in assay [3], “binds”.
